According to publication PMC7979813:
No constants are given. Whether binding was seen depends on the method and setting. Binding can be weak; no strength is given.

The chains behind the UniProt entries cited, without tags or fusion partners. Where a name states a change or a piece, a line headed by the entry shows the natural chain unless it says otherwise.
UniProt G4MU73: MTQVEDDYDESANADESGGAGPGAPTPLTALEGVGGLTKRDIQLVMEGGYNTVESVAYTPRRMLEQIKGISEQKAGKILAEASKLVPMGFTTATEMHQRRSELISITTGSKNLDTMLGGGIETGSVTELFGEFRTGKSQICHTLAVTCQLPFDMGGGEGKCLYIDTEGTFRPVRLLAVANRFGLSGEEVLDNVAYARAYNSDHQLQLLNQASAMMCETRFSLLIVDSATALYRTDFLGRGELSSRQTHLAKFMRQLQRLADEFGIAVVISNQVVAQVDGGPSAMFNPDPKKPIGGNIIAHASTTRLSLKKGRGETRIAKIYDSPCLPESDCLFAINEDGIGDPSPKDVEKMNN
UniProt G4MU74: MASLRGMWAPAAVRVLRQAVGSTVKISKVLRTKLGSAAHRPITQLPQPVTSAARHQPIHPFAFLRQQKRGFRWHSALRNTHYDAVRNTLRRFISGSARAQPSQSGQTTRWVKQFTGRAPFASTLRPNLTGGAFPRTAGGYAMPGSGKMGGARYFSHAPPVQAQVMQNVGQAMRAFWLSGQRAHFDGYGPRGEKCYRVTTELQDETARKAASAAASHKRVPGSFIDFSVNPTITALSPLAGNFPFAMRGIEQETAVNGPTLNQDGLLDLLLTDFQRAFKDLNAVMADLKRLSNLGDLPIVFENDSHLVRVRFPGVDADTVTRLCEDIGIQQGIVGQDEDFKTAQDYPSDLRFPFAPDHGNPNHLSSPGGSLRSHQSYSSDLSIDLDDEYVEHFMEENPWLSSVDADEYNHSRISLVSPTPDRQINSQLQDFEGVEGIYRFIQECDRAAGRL

Biological target: Rhm51 (MGG_15576), yeast two-hybrid fusion (Pyricularia oryzae) (UniProt G4MU73)
Test: two-hybrid

For “Ddnm1 (MGG_15577), yeast two-hybrid fusion (from UniProt G4MU74)”, the binding was “binds”.
